We go through three substances from PMC7691508 (Nature Communications, 2020).

Protein sequences, listed by entry. Tags and fused reporters are not part of them.
UniProt Q8N884: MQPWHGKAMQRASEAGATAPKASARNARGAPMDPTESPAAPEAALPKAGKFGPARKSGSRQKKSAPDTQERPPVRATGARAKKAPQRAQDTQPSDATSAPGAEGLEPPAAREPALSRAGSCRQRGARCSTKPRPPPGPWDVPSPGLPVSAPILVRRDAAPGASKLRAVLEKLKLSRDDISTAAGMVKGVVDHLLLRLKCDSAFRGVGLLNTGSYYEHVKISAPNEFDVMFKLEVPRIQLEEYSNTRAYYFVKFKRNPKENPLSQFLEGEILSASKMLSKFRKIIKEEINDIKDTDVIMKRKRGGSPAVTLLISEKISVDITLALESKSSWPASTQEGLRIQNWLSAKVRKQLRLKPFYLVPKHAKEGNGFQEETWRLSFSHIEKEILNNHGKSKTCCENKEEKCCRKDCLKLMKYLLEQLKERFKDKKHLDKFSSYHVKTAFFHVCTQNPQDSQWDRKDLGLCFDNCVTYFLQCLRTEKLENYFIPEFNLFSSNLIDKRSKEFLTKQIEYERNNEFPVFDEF

These are yes or no findings as the source states them, for the method shown. For part of these data: Binding seen in cells or lysates may run through a third protein. Some binding calls cover weakened binding; strength is not graded here.

The target of test [1] is cyclic GMP-AMP synthase (cGAS) (UniProt Q8N884). As to the kind of experiment: co-IP.
The target of a further test is GST-cGAS (UniProt Q8N884). Description: pull-down; both purified.

As for “β-arrestin 2 K171R mutant (from UniProt P32121 1-409)”, the binding result in test [1] was “binds”.
Consider “β-arrestin 2 (from UniProt P32121 1-409)”, for which the binding entry in test [1] is given as “binds”.
“His-β-arrestin 2 (from UniProt P32121 1-409)”: the binding result with GST-cGAS is “binds”.
